Results published in patent US10973840B2, “Methods of sensitizing tumor cells to weak base chemotherapeutic drugs” (SOCPRA SCIENCES SANTÉ ET HUMAINES S.E.C., priority 2017, dated 2021).

Experiments:
HT-1080 cells = test: Intracellular localization of Dox by confocal live-cell imaging, HT-1080; format: cell-based, human; details: for sequestration of Dox within endosomes: HT-1080, normoxic
Method: (§1) Cells were cultured in 25 mm-diameter glass coverslips (Thermo Fisher Scientific) and incubated under various conditions (as indicated in the FIG. legends). Cells were then incubated for 2 h in a medium containing Dox (2 μM). After the incubation period, cells were washed to remove excess Dox and left in drug-free media for 10 min. […] Coverslips were mounted on glass slides and placed on a 37° C. warmed stage of an Olympus Fluoview™ FV1000 (Olympus, Tokyo, Japan) confocal laser scanning microscope. Dox was excited with a green helium neon laser (543 nm) and emitted fluorescence intensity was measured. Images were acquired on the same day, typically from 10-20 cells of similar size from each experimental condition, using identical instrument settings.

MDA-MB-231 cells = test: Intracellular localization of Dox by confocal live-cell imaging, MDA-MB-231; format: cell-based, human; details: for sequestration of Dox within endosomes: MDA-MB-231, normoxic
Method: as §1

COc1cccc2c1C(=O)c1c(O)c3c(c(O)c1C2=O)C[C@@](O)(C(=O)CO)C[C@@H]3O[C@H]1C[C@H](N)[C@H](O)[C@H](C)O1 [Dox, doxorubicin]
Dox localization in the nucleus (HT-1080 cells; HT-1080, hypoxia (1% O2) vs normoxia): significantly decreased | uptake of Dox (nuclear fluorescence intensity) (HT-1080 cells; HT-1080, media of different pHs, 4 h, effect of extracellular acidification): reduces the uptake of Dox | Dox localization (HT-1080 cells; HT-1080, normoxia (21% O2)): predominant accumulation of Dox in the nucleus | sequestration of Dox within endosomes (HT-1080 cells; shNHE6): ~45% | sequestration of Dox within endosomes (HT-1080 cells; shScrambled): ~20% | Dox localization in the nucleus (MDA-MB-231 cells; MDA-MB-231, hypoxia (1% O2) vs normoxia): significantly decreased | Dox localization (MDA-MB-231 cells; MDA-MB-231, normoxia (21% O2)): predominant accumulation of Dox in the nucleus | sequestration of Dox within endosomes (MDA-MB-231 cells; shNHE6): ~74% | sequestration of Dox within endosomes (MDA-MB-231 cells; shScrambled): ~10%
